“And” between values parts separate entries of the source, which are not always exact repeats. Equal entries are not always repeated. Out of some 580,000 compounds screened, about 6,100 (1.1%) were called active. The shares of active, inactive and inconclusive entries below differ from those in the screen. Calls follow the shape of the dose curve; as a rule, active = well fitted inhibition curve with a large enough effect; inconclusive = small, poorly fitted or top-dose-only effect, or another doubt; inactive = no such curve, though single readings can be large or run the other way. A potency beside an inconclusive call is a rough fit, not a confirmed value.
What follows are compounds tested against Polyunsaturated fatty acid lipoxygenase ALOX12 (Homo sapiens) (UniProt P18054) (assay: Primary qHTS assay for inhibitors of human arachidonate 12S-lipoxygenase (ALOX12): Round 2). Details: purified 12hLO, xylenol orange hydroperoxide absorbance; activity change, negative = inhibition: at 108 µM (top of the series) unless noted.
In short: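 Hydroperoxide product was detected by ferrous iron/xylenol orange as the 573 to 405 nm absorbance ratio. Arachidonic acid at 40 uM (final) was turned over for 30 min at room temperature by 150 nM human 12hLO, pH 7.0 Hepes buffer, after 15 min compound preincubation.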
% is scaled to controls: 0 for no effect and ±100 for the full control effect; potency is read from the fitted curve at half-maximal effect.

Protein sequences, listed by entry. Tags and fused reporters are not part of them. Lines headed by an entry give the natural chain unless they say otherwise; changes in a name come on top.
UniProt P18054: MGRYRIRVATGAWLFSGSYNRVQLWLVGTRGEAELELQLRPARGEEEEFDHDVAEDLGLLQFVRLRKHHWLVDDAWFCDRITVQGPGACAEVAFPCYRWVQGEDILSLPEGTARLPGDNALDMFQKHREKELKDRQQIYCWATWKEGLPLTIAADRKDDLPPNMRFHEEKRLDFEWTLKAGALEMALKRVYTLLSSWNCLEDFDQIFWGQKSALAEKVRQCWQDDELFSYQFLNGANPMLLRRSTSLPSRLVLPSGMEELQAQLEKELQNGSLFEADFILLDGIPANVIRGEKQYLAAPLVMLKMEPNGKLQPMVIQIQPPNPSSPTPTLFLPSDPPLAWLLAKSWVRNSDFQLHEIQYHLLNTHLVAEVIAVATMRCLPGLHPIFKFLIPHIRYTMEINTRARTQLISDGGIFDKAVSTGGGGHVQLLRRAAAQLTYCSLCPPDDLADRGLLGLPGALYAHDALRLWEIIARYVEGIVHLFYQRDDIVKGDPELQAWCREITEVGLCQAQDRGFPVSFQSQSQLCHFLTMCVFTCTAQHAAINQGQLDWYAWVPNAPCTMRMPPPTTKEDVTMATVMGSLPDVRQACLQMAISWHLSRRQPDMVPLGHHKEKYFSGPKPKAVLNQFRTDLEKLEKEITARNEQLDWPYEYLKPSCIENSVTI

SMILES | Potency | activity change, negative = inhibition
COc1ccc(S(=O)(=O)Nc2ccc3c(c2)N(C(C)=O)CCC3)cc1OC | inconclusive: 100 µM [inhibitor, partial curve, poor fit] | –
COc1cc(F)ccc1C(C(=O)O)N1CCC(Oc2cccc(F)c2)CC1 (stereo not given) | inconclusive: 3.16 µM [inhibitor, full curve, poor fit] | –
COc1ccc(-c2nc3ccc(C)cn3c2CC2CCCCC2)cc1OC | inconclusive: 5.62 µM [inhibitor, partial curve, poor fit] | –
COc1ccc(OC)c(/C=C2\SC(=S)N(C(C(=O)O)c3ccccc3)C2=O)c1 (stereo not given) | inconclusive: 39.8 µM [inhibitor, partial curve, poor fit] | –
Cc1cc(NC(=O)CSc2nnc(Nc3ccccc3C)s2)no1 | – | inactive: 16%
Cc1cc(OCC(=O)Nc2cnn(CCCC(=O)O)c2)ccc1Cl | inconclusive: 44.7 µM [inhibitor, partial curve, poor fit] | –
COc1ccc(C(=O)c2c(N)c(C#N)c3n2CCC3)cc1OC | – | inactive: 8.97%
C/C(=N/Nc1ccc(S(N)(=O)=O)cc1[N+](=O)[O-])c1cccc(Cl)c1 | inconclusive: 0.447 µM [inhibitor, single point] | –
Fc1cccc(CSc2nnc(-c3ccccc3F)n2C2CC2)c1 | inconclusive: 14.1 µM [inhibitor, full curve, poor fit] | –
CCc1ccccc1CN1CCCCC12Cc1ccccc1CNC2=O (stereo not given) | inconclusive: 112 µM [inhibitor, partial curve, poor fit] | –
COc1ccc(CCN2Cc3cc(NC(=O)c4cccc(F)c4)ccc3OC(C)C2=O)cc1 (stereo not given) | inconclusive: 35.5 µM [inhibitor, partial curve, poor fit] | –
C=CC(C)(CCC=C(C)C)OC(=O)CC(C)C (stereo not given) | inconclusive: 251 µM [inhibitor, single point] | –
O=c1cc(-c2ccccc2Cl)oc2c(NS(=O)(=O)c3ccccc3C(F)(F)F)ccc(O)c12 | inconclusive: 3.16 µM [inhibitor, full curve, poor fit] | –
Cc1ccc(C(CC(=O)NCC2(c3ccccc3)CCCC2)c2ccccc2)c(O)c1 (stereo not given) | – | inconclusive: -45.9% [inhibitor]
CCc1nnc(NC(=O)[C@@H](NS(=O)(=O)c2ccc3c(c2)OCCO3)C(C)C)s1 | – | inactive: 2.13%
COc1ccc(NC2CCCN(C(=O)c3ccccc3C(F)(F)F)C2)cc1 (stereo not given) | inconclusive: 112 µM [inhibitor, single point] | –
COc1ccc(-c2ccnc3nc(-c4ccco4)nn23)c(F)c1 | inconclusive: 11.2 µM [inhibitor, full curve, poor fit] | –
c1csc(-c2nnc(N3CCCCCC3)c3ccccc23)c1 | inconclusive: 2.82 µM [inhibitor, full curve, poor fit] | –
COc1ccc(N2CCN(C(=O)CCS(=O)(=O)c3ccc4c(c3)NC(=O)CO4)CC2)cc1 | – | inactive: -5.09%
CC1CCC(NC(=O)CSCc2coc(-c3ccc(Cl)cc3)n2)CC1 (stereo not given) | inconclusive: 79.4 µM [inhibitor, single point] | –
O=C(NNc1nc(-c2ccccc2)cs1)c1ccco1 | inconclusive: 2.24 µM [inhibitor, full curve, poor fit] | –
Cc1cc(C#N)c2ccccc2n1 | – | inactive: 142%

SMILES | Potency | activity change, negative = inhibition
O=C(COc1ncnc2ccccc12)Nc1ccc(F)c(F)c1F | – | inactive: 4.19%
O=C(Nc1ccc(Cl)cc1)NN1CCCCCC1 | inconclusive: 39.8 µM [inhibitor, partial curve, poor fit] | –
COc1ccc(CNCC(O)(c2ccc(Cl)cc2)c2ccc(Cl)cc2)cc1OC | inconclusive: 56.2 µM [inhibitor, partial curve, poor fit] | –
CN(C)C(CNC(=O)c1sc2ccccc2c1Cl)c1ccco1 (stereo not given) | inconclusive: 35.5 µM [inhibitor, partial curve, poor fit] and inconclusive: 126 µM [inhibitor, single point] | –
CCOc1ccc2c(c1)[C@@H]1C=CC[C@@H]1[C@H](c1ccccc1Cl)N2 | inconclusive: 70.8 µM [inhibitor, partial curve, poor fit] | –
CC(C)Cn1c(-c2csc3c2CCCC3)n[nH]c1=S | inconclusive: 22.4 µM [inhibitor, full curve, poor fit] | –
CC(=O)c1cc(CN2CCC3(CC2)CN(CC(C)c2ccccc2)C(=O)O3)cs1 (stereo not given) | – | inactive: 9.3%
O=C(CCSc1nnc(-c2ccncc2)o1)Nc1cccc(Cl)c1 | – | inactive: -8.89%
CCC1(N2CCN(C(=O)c3cc(F)ccc3Cl)CC2)CCN(C(=O)C(C)C)C1 (stereo not given) | inconclusive: 14.1 µM [inhibitor, partial curve] | –
Cc1ccc(CNC(C)c2ccccc2)s1 (stereo not given) | inconclusive: 39.8 µM [inhibitor, partial curve, poor fit] | –
COc1ccc(N(C(=O)c2snc(C(N)=O)c2N)C(C(=O)NC2CCCC2)c2ccc(F)cc2)c(OC)c1 (stereo not given) | – | inactive: -1.83%
CCCCOc1nc2ccccc2nc1C(C#N)S(=O)(=O)c1ccccc1 (stereo not given) | inconclusive: 2 µM [inhibitor, full curve, poor fit] | –
c1cc2cc(CNC3CC3)ccc2[nH]1 | inconclusive: 89.1 µM [inhibitor, single point] | –
CC(C)(C)OC(=O)N1CCC(c2c(C(=O)Nc3ccc4c(c3)OCCO4)cnn2-c2ccc(F)cc2)CC1 | – | inactive: 0.225%
Cn1cccc1/C=C1\SC(=S)N(CC(=O)O)C1=O | inconclusive: 50.1 µM [inhibitor, partial curve, poor fit] | –
O=C(N/N=C/c1ccc(Oc2ccccc2)cc1)c1ccc(CSCc2ccccc2)cc1 | – | inactive: 8.85%
CN(C)C(=O)c1ccc(-c2ccc3ncnc(NCCN4CCOCC4)c3c2)cc1 | inconclusive: 50.1 µM [inhibitor, partial curve, poor fit] | –
CN(C)S(=O)(=O)c1cccc(NC(=O)c2cccc(N3C(=O)CCC3=O)c2)c1 | – | inactive: 7.83%
O=C(/C=C/c1ccc([N+](=O)[O-])cc1)Nc1cccc(C(=O)Nc2ccccc2C(=O)O)c1 | inconclusive: 44.7 µM [inhibitor, partial curve, poor fit] | –
CC(C)NC(=O)CN1CCN(C(=O)c2cc3cc(Br)ccc3[nH]2)CC1 | inconclusive: 31.6 µM [inhibitor, partial curve] | –
FC(F)(F)c1ccccc1NC(=S)N1CCN(Cc2ccc3c(c2)OCO3)CC1 | – | inactive: -60.9%
CCOC(=O)C1CCN(c2cc3c(cc2NC(=O)c2ccc(OC)c(OC)c2)n(C)c(=O)n3C)CC1 | inconclusive: 89.1 µM [inhibitor, partial curve, poor fit] | –

Complete entries from above. Order of values: Potency	activity change, negative = inhibition
CN(C)C(CNC(=O)c1sc2ccccc2c1Cl)c1ccco1 (stereo not given) is listed with inconclusive: 35.5 µM [inhibitor, partial curve, poor fit] and inconclusive: 126 µM [inhibitor, single point]	–
FC(F)(F)c1ccccc1NC(=S)N1CCN(Cc2ccc3c(c2)OCO3)CC1 is listed with –	inactive: -60.9%
CC(C)NC(=O)CN1CCN(C(=O)c2cc3cc(Br)ccc3[nH]2)CC1 is listed with inconclusive: 31.6 µM [inhibitor, partial curve]	–
O=C(/C=C/c1ccc([N+](=O)[O-])cc1)Nc1cccc(C(=O)Nc2ccccc2C(=O)O)c1 is listed with inconclusive: 44.7 µM [inhibitor, partial curve, poor fit]	–

Continuation:

SMILES | Potency | activity change, negative = inhibition
COC(=O)C1=C(C)N(CC2CC2)C(=NCc2cccc(Cl)c2)N[C@H]1c1ccccc1 | inconclusive: 56.2 µM [inhibitor, partial curve, poor fit] | –
Oc1ccc(/C=N/n2c(-c3ccccc3)n[nH]c2=S)cc1Br | active: 31.6 µM | –
CCOC(=O)c1cc2cc(Oc3ccc4[nH]c(C(=O)OCC)cc4c3)ccc2[nH]1 | – | inactive: 60.5%
COc1ccc(-c2noc([C@@H]3C[C@H](NS(=O)(=O)c4ccccc4)CN3C)n2)cc1 | inconclusive: 28.2 µM [inhibitor, full curve, poor fit] | –
O=C(O)c1cccc(Nc2ncnc3ccccc23)c1 | inconclusive: 2.82 µM [inhibitor, full curve, poor fit] | –
COc1ccc(CNC(=O)CCCCCn2c(SCC#N)nc3cc4c(cc3c2=O)OCO4)cc1 | inconclusive: 89.1 µM [inhibitor, single point] | –
Cc1ccc(/C=C2\SC(=S)N(CCCC(=O)Nc3ccccc3C(=O)O)C2=O)cc1 | inconclusive: 44.7 µM [inhibitor, partial curve, poor fit] | –
O=C(Cc1csc(-c2ccccc2Cl)n1)Nc1nccs1 | – | inactive: 5.87%
COC(=O)C1=C(C(=O)OC)SC(=C2C(=S)C(C)(C)N(C(=O)C3CC3)c3ccccc32)S1 | – | inactive: -29.4%
COc1ccc(N(C(=O)c2ccc(S(=O)(=O)N3CCOCC3)cc2)C2C=CS(=O)(=O)C2)cc1 (stereo not given) | – | inactive: 18.4%
c1ccc(CN2CC(N3CCc4ccccc43)C2)cc1 | – | inactive: 0.0166% [at 12.5 µM]
CCOC(=O)/C(C#N)=C\NC(C)=O | – | inactive: 29.7%
COc1ccc(C)c2sc(N(CCN(C)C)C(=O)/C=C/c3cccs3)nc12 | – | inactive: -12.6%
O=C(OCc1cccc(COC(=O)C2=COCCO2)c1)C1=COCCO1 | – | inactive: -5.58%
O=C(NCC1CCCO1)c1ccc(S(=O)(=O)Nc2ccc(F)cc2)cc1 (stereo not given) | inconclusive: 28.2 µM [inhibitor, partial curve, poor fit] | –
C=CCn1c(N2CCN(c3cccc(Cl)c3)CC2)nc2c1c(=O)[nH]c(=O)n2C | inconclusive: 100 µM [inhibitor, single point] | –
CON(C)C(=O)CC(CN(Cc1ccccc1)C(=O)OC(C)(C)C)c1ccc(Cl)cc1 (stereo not given) | inconclusive: 112 µM [inhibitor, single point] | –
O=C(NC(=S)Nc1ccc(C(F)(F)F)cc1)c1csnn1 | inconclusive: 50.1 µM [inhibitor, partial curve, poor fit] | –
Cc1cc(=O)n(Cc2cccc(Br)c2)c2c1c(C)nn2-c1ccccc1 | inconclusive: 0.251 µM [inhibitor, full curve, poor fit] | –
COc1ccc(-c2c(C#N)c(N)nc(Sc3ccc(Cl)cc3)c2C#N)cc1 | inconclusive: 56.2 µM [inhibitor, partial curve, poor fit] | –
CCC(=O)N1[C@H](CO)[C@@H]2c3ccccc3N(C(=O)Nc3ccc(Cl)cc3)C[C@@H]21 | inconclusive: 112 µM [inhibitor, single point] | –

Reference: PubChem BioAssay AID1671190 (National Center for Advancing Translational Sciences (NCATS), 2021)
